# Experimental data: PubChem BioAssay AID1224831 (NIAID, 2016)
# Screen: 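Genes that support or restrain LPS-induced TNF-alpha reporter activity in macrophage-like cells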 (follow-up of hits)
# Cells: human THP-1 B5 monocytic leukaemia cells carrying a TNF promoter luciferase reporter, made macrophage-like with PMA
# Knock-down reagent: single siRNA against human genes, 50 nM
# Duration: about 68 h of knock-down, then 4 h LPS
# Challenge: LPS (Salmonella minnesota, TLR-grade) at 10 ng/ml for 4 h; PMA 5 ng/ml present during knock-down
# Read-out: 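TNF promoter reporter read as dual luciferase ratio after 4 h LPS, normalised per plate to its median, given as replicate mean robust z-score per siRNA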
# Reading the numbers: TNF reporter z-score: higher = stronger LPS-induced TNF reporter signal; z-score, median over gene's siRNAs: higher = stronger TNF reporter signal across the gene's siRNAs
# Rule for the call: 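Two-sided call: reduced or raised TNF reporter signal counts as active once mean z reaches about -1 or below, or about 1.5 or above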
# Meaning of the calls: active = changed TNF reporter (either direction); inactive = little change
# This is an unselected part of about 3,500 reagents tested. In the full data, 731 (21%) got an active call. 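Active means either lowered or raised reporter signal; the gene-median score did not drive the per-siRNA calls.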 Reagents against one gene are numbered here. No sequences are given here.
gene,siRNA no.,"TNF reporter z-score, replicate mean","z-score, median over gene's siRNAs",call
CPNE5,1,0.02,0.05,inactive
CPNE5,2,0.84,0.05,inactive
CPNE5,3,0.03,0.05,inactive
CPNE5,4,-0.2,0.05,inactive
CPNE5,5,0.07,0.05,inactive
CPNE5,6,1.02,0.05,inactive
SPRR1B,1,-0.48,-0.615,inactive
SPRR1B,2,0.43,-0.615,inactive
SPRR1B,3,0.81,-0.615,inactive
SPRR1B,4,-0.75,-0.615,inactive
SPRR1B,5,-0.75,-0.615,inactive
SPRR1B,6,-1.9,-0.615,active
NRBP2,1,0.17,-0.02,inactive
NRBP2,2,-0.21,-0.02,inactive
NRBP2,3,-1.77,-0.02,active
NRBP2,4,0.86,-0.02,inactive
NRBP2,5,-0.73,-0.02,inactive
NRBP2,6,2.13,-0.02,active
PDE2A,1,0.79,0.005,inactive
PDE2A,2,-0.98,0.005,inactive
PDE2A,3,0.39,0.005,inactive
PDE2A,4,1.16,0.005,inactive
PDE2A,5,-0.38,0.005,inactive
PDE2A,6,-0.81,0.005,inactive
MAGEA12,1,1.44,0.265,inactive
MAGEA12,2,0.14,0.265,inactive
MAGEA12,3,0.23,0.265,inactive
MAGEA12,4,-0.18,0.265,inactive
MAGEA12,5,0.75,0.265,inactive
MAGEA12,6,0.3,0.265,inactive
KCNH8,1,0.82,0.445,inactive
KCNH8,2,1.06,0.445,inactive
KCNH8,3,0,0.445,inactive
KCNH8,4,0.07,0.445,inactive
KCNH8,5,0.02,0.445,inactive
KCNH8,6,1.01,0.445,inactive
